Measurements reported in PubChem BioAssay AID1508597 (Cure First, 2020).
Screen: 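Knock-downs altering ovarian cancer cell survival with or without PARP inhibitor rucaparib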 (primary screen). Cells: human ovarian carcinoma lines grown from tumours: OCI-P5x (papillary serous) and OCI-C5x (clear cell). Reagents: siRNA pool against human genes, 1.25 pmol siRNA per well. Duration: 72 h or 96 h, depending on the cell culture. Treatment: rucaparib 20 µM (about IC30) or vehicle, present until read-out. Rucaparib or vehicle: Rucaparib. Cell line: OCI-C5x (clear cell). Measurement: 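Luminescent ATP-based viability assay read 72 or 96 h after transfection, depending on culture, given as normalised percent viability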. Reading the numbers: viability, normalised: higher = more viable cells remaining. Rule for the call: 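Active when normalised viability falls below 80 percent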. Calls: active = viability under 80%; inactive = viability 80% or more.
Shown is an unselected part of the about 2,100 reagents, under one of the conditions tested. 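Calls flag viability under 80% in either arm, not effects specific to rucaparib; the reference for percent is not stated.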 Entries without a mark were called inactive. Some reagents were tested in more than one well and are listed for each. No sequences are given here. The record does not give: the 100% reference.

Target gene | technical replicate | viability, normalised (%)
PRKACG (protein kinase cAMP-activated catalytic subunit gamma) | 1 | 51 (active)
PRKACG (protein kinase cAMP-activated catalytic subunit gamma) | 2 | 48.1 (active)
PRKACG (protein kinase cAMP-activated catalytic subunit gamma) | 3 | 52.7 (active)
IGF1R (insulin like growth factor 1 receptor) | 1 | 46.9 (active)
IGF1R (insulin like growth factor 1 receptor) | 2 | 44.9 (active)
IGF1R (insulin like growth factor 1 receptor) | 3 | 50.7 (active)
SOX6 (SRY-box transcription factor 6) | 1 | 59 (active)
SOX6 (SRY-box transcription factor 6) | 2 | 41.6 (active)
SOX6 (SRY-box transcription factor 6) | 3 | 50 (active)
CUBN (cubilin) | 1 | 47.6 (active)
CUBN (cubilin) | 2 | 46.5 (active)
CUBN (cubilin) | 3 | 41.2 (active)
DDA1 (DET1 and DDB1 associated 1) | 1 | 62.4 (active)
DDA1 (DET1 and DDB1 associated 1) | 2 | 66.3 (active)
DDA1 (DET1 and DDB1 associated 1) | 3 | 63.1 (active)
DGKZ (diacylglycerol kinase zeta) | 1 | 87
DGKZ (diacylglycerol kinase zeta) | 2 | 42.3 (active)
DGKZ (diacylglycerol kinase zeta) | 3 | 71.3 (active)
PDE1C (phosphodiesterase 1C) | 1 | 54.8 (active)
PDE1C (phosphodiesterase 1C) | 2 | 48.4 (active)
PDE1C (phosphodiesterase 1C) | 3 | 53 (active)
RUVBL2 (RuvB like AAA ATPase 2) | 1 | 72.5 (active)
RUVBL2 (RuvB like AAA ATPase 2) | 1 | 62.8 (active)
RUVBL2 (RuvB like AAA ATPase 2) | 2 | 46.4 (active)
RUVBL2 (RuvB like AAA ATPase 2) | 2 | 64.3 (active)
RUVBL2 (RuvB like AAA ATPase 2) | 3 | 66.4 (active)
RUVBL2 (RuvB like AAA ATPase 2) | 3 | 52.3 (active)
PAK2 (p21 (RAC1) activated kinase 2) | 1 | 47.7 (active)
PAK2 (p21 (RAC1) activated kinase 2) | 2 | 48.6 (active)
PAK2 (p21 (RAC1) activated kinase 2) | 3 | 45.8 (active)
GLI3 (GLI family zinc finger 3) | 1 | 46.2 (active)
GLI3 (GLI family zinc finger 3) | 2 | 62.3 (active)
GLI3 (GLI family zinc finger 3) | 3 | 59.4 (active)
STK4 (serine/threonine kinase 4) | 1 | 48.5 (active)
STK4 (serine/threonine kinase 4) | 2 | 41.5 (active)
STK4 (serine/threonine kinase 4) | 3 | 55.2 (active)
RECQL (RecQ like helicase) | 1 | 58.9 (active)
RECQL (RecQ like helicase) | 1 | 50.8 (active)
RECQL (RecQ like helicase) | 2 | 41.6 (active)
RECQL (RecQ like helicase) | 2 | 54.8 (active)
RECQL (RecQ like helicase) | 3 | 56.2 (active)
RECQL (RecQ like helicase) | 3 | 37.6 (active)
POLE3 (DNA polymerase epsilon 3, accessory subunit) | 1 | 39.1 (active)
POLE3 (DNA polymerase epsilon 3, accessory subunit) | 2 | 45.5 (active)
POLE3 (DNA polymerase epsilon 3, accessory subunit) | 3 | 32.2 (active)
PRDM7 (PR/SET domain 7) | 1 | 48.2 (active)
PRDM7 (PR/SET domain 7) | 2 | 34.1 (active)
PRDM7 (PR/SET domain 7) | 3 | 41.6 (active)
GSK3B (glycogen synthase kinase 3 beta) | 1 | 56.4 (active)
GSK3B (glycogen synthase kinase 3 beta) | 1 | 57.1 (active)
GSK3B (glycogen synthase kinase 3 beta) | 2 | 64.7 (active)
GSK3B (glycogen synthase kinase 3 beta) | 2 | 47 (active)
GSK3B (glycogen synthase kinase 3 beta) | 3 | 40.7 (active)
GSK3B (glycogen synthase kinase 3 beta) | 3 | 52.1 (active)
TGFBR3 (transforming growth factor beta receptor 3) | 1 | 69.3 (active)
TGFBR3 (transforming growth factor beta receptor 3) | 2 | 69.3 (active)
TGFBR3 (transforming growth factor beta receptor 3) | 3 | 54.9 (active)
ULK1 (unc-51 like autophagy activating kinase 1) | 1 | 57.6 (active)
ULK1 (unc-51 like autophagy activating kinase 1) | 2 | 51.8 (active)
ULK1 (unc-51 like autophagy activating kinase 1) | 3 | 61 (active)
DDX60 (DExD/H-box helicase 60) | 1 | 57.6 (active)
DDX60 (DExD/H-box helicase 60) | 2 | 50.7 (active)
DDX60 (DExD/H-box helicase 60) | 3 | 43.5 (active)
GK (glycerol kinase) | 1 | 53.9 (active)
GK (glycerol kinase) | 2 | 50.4 (active)
GK (glycerol kinase) | 3 | 66.5 (active)
GDPD5 (glycerophosphodiester phosphodiesterase domain containing 5) | 1 | 64.5 (active)
GDPD5 (glycerophosphodiester phosphodiesterase domain containing 5) | 2 | 57.7 (active)
GDPD5 (glycerophosphodiester phosphodiesterase domain containing 5) | 3 | 45.7 (active)
LIMK2 (LIM domain kinase 2) | 1 | 66.2 (active)
LIMK2 (LIM domain kinase 2) | 1 | 55.8 (active)
LIMK2 (LIM domain kinase 2) | 2 | 68.8 (active)
LIMK2 (LIM domain kinase 2) | 2 | 74.9 (active)
LIMK2 (LIM domain kinase 2) | 3 | 53.1 (active)
LIMK2 (LIM domain kinase 2) | 3 | 63.1 (active)

9 entries from above in another layout.
GSK3B (glycogen synthase kinase 3 beta), technical replicate 1
- viability, normalised (%): 57.1 (active)

GSK3B (glycogen synthase kinase 3 beta), technical replicate 2
- viability, normalised (%): 64.7 (active)

GSK3B (glycogen synthase kinase 3 beta), technical replicate 2
- viability, normalised (%): 47 (active)

GSK3B (glycogen synthase kinase 3 beta), technical replicate 3
- viability, normalised (%): 40.7 (active)

GSK3B (glycogen synthase kinase 3 beta), technical replicate 3
- viability, normalised (%): 52.1 (active)

TGFBR3 (transforming growth factor beta receptor 3), technical replicate 1
- viability, normalised (%): 69.3 (active)

TGFBR3 (transforming growth factor beta receptor 3), technical replicate 2
- viability, normalised (%): 69.3 (active)

TGFBR3 (transforming growth factor beta receptor 3), technical replicate 3
- viability, normalised (%): 54.9 (active)

ULK1 (unc-51 like autophagy activating kinase 1), technical replicate 1
- viability, normalised (%): 57.6 (active)
